# Measured values reported in PMC7819943, “Rice protein-binding microarrays: a tool to detect cis-acting elements near promoter regions in rice”.
# Amino acid sequences for entries named in this document (tags omitted).
# UniProt Q0JBA9, entry or part of it: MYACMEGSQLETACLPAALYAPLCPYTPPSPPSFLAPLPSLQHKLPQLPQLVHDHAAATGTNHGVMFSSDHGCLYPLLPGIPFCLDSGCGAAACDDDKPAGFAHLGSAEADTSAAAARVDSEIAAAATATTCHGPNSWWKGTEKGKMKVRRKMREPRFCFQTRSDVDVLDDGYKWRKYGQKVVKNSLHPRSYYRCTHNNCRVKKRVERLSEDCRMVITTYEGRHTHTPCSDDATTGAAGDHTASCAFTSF
# The list shows a part of the results.
# Target: OsWRKY34 (Oryza sativa, UniProt Q0JBA9 1-250)
# Test: protein-binding microarray (RPBM); PBS, 2% BSA, 51.3 ng/ul salmon testes DNA, 50 uM zinc acetate, 200 nM TF, 25 C, 1 h; high values mean tight binding
# Details: protein: recombinant; tags: N-terminal polyhistidine and DsRed monomer fusion (pET32a); label: CyDye5-dUTP incorporated in the synthesized complementary strand; 3' TTTTT single-stranded linker to array surface; dsDNA, one strand shown
# Method in brief: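 Transcription factors were made in E. coli BL21-CodonPlus as N-terminal fusions to a polyhistidine tag and DsRed, then purified on Ni–NTA. After primer extension with Cy5-dUTP and blocking with 2% BSA, a custom Agilent array was exposed for 1 h at 25 °C to 200 nM protein in PBS, 2% BSA, salmon testes DNA and 50 µM zinc acetate. Washed arrays were scanned on an Axon 4000B, and the binding signal is per-feature fluorescence intensity in arbitrary units.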
row,Sequence,binding signal
1,TAGTTCTTTCATTCGTGTCTGAAAACCCTTTTCGAGTTTCCGGAGTCACCTAGTGCAG,10500 fluorescence intensity (a.u.)
2,GGTTTCTTGTGTTGGGAGAGGATTGATGGGCTACCTTGGACGGAGTCACCTAGTGCAG,8360 fluorescence intensity (a.u.)
3,AATCTGCAAAACCAGACATTCGACATCTTTATTGGTATTTCGGAGTCACCTAGTGCAG,9090 fluorescence intensity (a.u.)
4,TAGCCGCTCAATTTTATCATGCTGTTTTTTGCGCACTTAACGGAGTCACCTAGTGCAG,10800 fluorescence intensity (a.u.)
5,ATTCATATTTGAATGTATGTTTTTTCTGTCTGTTTTATGTCGGAGTCACCTAGTGCAG,8500 fluorescence intensity (a.u.)
6,ACCAATACTCAATTATTTTTCTTCTTTGTATTTCAGTCTACGGAGTCACCTAGTGCAG,9280 fluorescence intensity (a.u.)
7,TTCGTTCCGATTCTTTTTTTTTCATTTGCTATGCATCTTCCGGAGTCACCTAGTGCAG,11000 fluorescence intensity (a.u.)
8,ACACTGTAGCCCCTGTACACCCATCAGATCTGGCTTTTTACGGAGTCACCTAGTGCAG,9400 fluorescence intensity (a.u.)
9,GTAGGCAGTAAGTACTATATACTAGTTGGGGTGTATAAGGCGGAGTCACCTAGTGCAG,8440 fluorescence intensity (a.u.)
10,CGATGACTCGTAATTTAATGTTTCATACCTCGCTTTATACCGGAGTCACCTAGTGCAG,10000 fluorescence intensity (a.u.)
11,TTATACTCCTACTTTATATTTTGCTTACAATGCCACATCACGGAGTCACCTAGTGCAG,8880 fluorescence intensity (a.u.)
12,CTACGCCCTAAGTTACATTCTCTACAATATTGTTCTCTAACGGAGTCACCTAGTGCAG,9890 fluorescence intensity (a.u.)
13,ACAACAATTTTGTACTCCCTCTATCCCCATTTTAAATACACGGAGTCACCTAGTGCAG,8130 fluorescence intensity (a.u.)
14,TAGCCATCGCCGTCCAGCGCCACTCCTGCTCGACTCCTTGCGGAGTCACCTAGTGCAG,8500 fluorescence intensity (a.u.)
15,ACGCACTGTTCTTTGTCGCTCCACACTCCACTCTCCCTGACGGAGTCACCTAGTGCAG,10400 fluorescence intensity (a.u.)
16,ATTTCCCGGTTAGTACAATCATTTACACTTGCCAACTGATCGGAGTCACCTAGTGCAG,8900 fluorescence intensity (a.u.)
17,GGAGGGGTCGCTGTTCGTTGTGAAGAGGTGAGTGTTTTAGCGGAGTCACCTAGTGCAG,9230 fluorescence intensity (a.u.)
18,GTTTCCATTCCATTTTATCTCGTGTTTGCAGACAACTAACCGGAGTCACCTAGTGCAG,8850 fluorescence intensity (a.u.)
19,CTCGCTTTCCCGTGCACGGCCAGTGTATATATAGCTCATCCGGAGTCACCTAGTGCAG,8240 fluorescence intensity (a.u.)
20,ATAGAGTGGTATTATTTCCCTTCTTCTTCTTTTATTCGGCCGGAGTCACCTAGTGCAG,8070 fluorescence intensity (a.u.)
21,CAGTTGATACTCATGTTCTGGTTTTCGAATCTAACTTTAACGGAGTCACCTAGTGCAG,9970 fluorescence intensity (a.u.)

# In a second layout: entries from further up.
row	Sequence	binding signal
7	TTCGTTCCGATTCTTTTTTTTTCATTTGCTATGCATCTTCCGGAGTCACCTAGTGCAG	11000 fluorescence intensity (a.u.)
8	ACACTGTAGCCCCTGTACACCCATCAGATCTGGCTTTTTACGGAGTCACCTAGTGCAG	9400 fluorescence intensity (a.u.)

# (listing goes on)

row,Sequence,binding signal
1,CGCGCGCGCGTGCGTGCGTGCGTGTGGGTGGGTGGGTGGACGGAGTCACCTAGTGCAG,11900 fluorescence intensity (a.u.)
2,GCCGCACTCCACTTCCCCAACACGCCGCCGCCGCCGCCGCCGGAGTCACCTAGTGCAG,11300 fluorescence intensity (a.u.)
3,GTGTGTTCGGGTGTGGCTCTAGCTGGAGGACGATGCTAGACGGAGTCACCTAGTGCAG,8100 fluorescence intensity (a.u.)
4,TCTCTTGTCTCCTTGTCTCATTTACTTGTTGTATTTATATCGGAGTCACCTAGTGCAG,8230 fluorescence intensity (a.u.)
5,GTTCTAATGTTTTTCCTTGTCTAATACTTTGTTGGCACTTCGGAGTCACCTAGTGCAG,9240 fluorescence intensity (a.u.)
6,ATTGAGCTCCCAATTTCCCAGTGTCATCTTTATACTTTTTCGGAGTCACCTAGTGCAG,11600 fluorescence intensity (a.u.)
7,TACATACTACACTATTAATATCTGGTCCCACCTGTCATACCGGAGTCACCTAGTGCAG,8960 fluorescence intensity (a.u.)
8,AGCTCAAAAGCCTTTTTTGTTTGTTCGCTGCTGCCACTGTCGGAGTCACCTAGTGCAG,8880 fluorescence intensity (a.u.)
9,AAATTTCCAGCCTTTTTTGCGCCCAATTCCATTGGGAGATCGGAGTCACCTAGTGCAG,8440 fluorescence intensity (a.u.)
10,ATTACTTGTCCCATGCAGCTGGACAAAGTACCGTTTGACCCGGAGTCACCTAGTGCAG,9060 fluorescence intensity (a.u.)
11,ACAACCCTCGTACGCGTCCGCTCAACGCACGCGCTCACACCGGAGTCACCTAGTGCAG,9220 fluorescence intensity (a.u.)
12,GTCCTTTGTTCTCATCATTGTTTGCCAAACCAGTGGACTACGGAGTCACCTAGTGCAG,10700 fluorescence intensity (a.u.)
13,AAGTTTCGGCTCACCTCACCACTTCACCAACCTATCTGGCCGGAGTCACCTAGTGCAG,8500 fluorescence intensity (a.u.)
14,GTTTCCTTCCTTGAGCTTGACATGTATTGGTCATTGTTAGCGGAGTCACCTAGTGCAG,8290 fluorescence intensity (a.u.)
15,CCGGCGGTGGCCGGACCTCGCGATCTGCTTTTCTTTTTCTCGGAGTCACCTAGTGCAG,9710 fluorescence intensity (a.u.)
16,TCCTGTGTTTTTTCTGTGTTTTGCAATCCTCTGTTTTACACGGAGTCACCTAGTGCAG,10900 fluorescence intensity (a.u.)
17,CACGTCGCGATTCCGCCTCTGTGCGCGCTGCTGCCCGGGCCGGAGTCACCTAGTGCAG,8480 fluorescence intensity (a.u.)
18,GCGTATAAAACTGGCATCCGACTTCCTTTTGCCTCCGCTGCGGAGTCACCTAGTGCAG,8440 fluorescence intensity (a.u.)
19,CGCGCGTCGGCCCGTCCATCTCCTGTCCTGTCGGTGCTCTCGGAGTCACCTAGTGCAG,12000 fluorescence intensity (a.u.)
20,AAATCCCCAAATCCTCACGCGGCCACTCGATTTGATCATGCGGAGTCACCTAGTGCAG,8270 fluorescence intensity (a.u.)
21,CATGCACCCACACATAGCGTATGTATGTAACCACCGAATACGGAGTCACCTAGTGCAG,8480 fluorescence intensity (a.u.)
